# Assay results reported in PMC8805874.
# Chains of the proteins cited; added tags and fusions are not shown.
# UniProt P04150: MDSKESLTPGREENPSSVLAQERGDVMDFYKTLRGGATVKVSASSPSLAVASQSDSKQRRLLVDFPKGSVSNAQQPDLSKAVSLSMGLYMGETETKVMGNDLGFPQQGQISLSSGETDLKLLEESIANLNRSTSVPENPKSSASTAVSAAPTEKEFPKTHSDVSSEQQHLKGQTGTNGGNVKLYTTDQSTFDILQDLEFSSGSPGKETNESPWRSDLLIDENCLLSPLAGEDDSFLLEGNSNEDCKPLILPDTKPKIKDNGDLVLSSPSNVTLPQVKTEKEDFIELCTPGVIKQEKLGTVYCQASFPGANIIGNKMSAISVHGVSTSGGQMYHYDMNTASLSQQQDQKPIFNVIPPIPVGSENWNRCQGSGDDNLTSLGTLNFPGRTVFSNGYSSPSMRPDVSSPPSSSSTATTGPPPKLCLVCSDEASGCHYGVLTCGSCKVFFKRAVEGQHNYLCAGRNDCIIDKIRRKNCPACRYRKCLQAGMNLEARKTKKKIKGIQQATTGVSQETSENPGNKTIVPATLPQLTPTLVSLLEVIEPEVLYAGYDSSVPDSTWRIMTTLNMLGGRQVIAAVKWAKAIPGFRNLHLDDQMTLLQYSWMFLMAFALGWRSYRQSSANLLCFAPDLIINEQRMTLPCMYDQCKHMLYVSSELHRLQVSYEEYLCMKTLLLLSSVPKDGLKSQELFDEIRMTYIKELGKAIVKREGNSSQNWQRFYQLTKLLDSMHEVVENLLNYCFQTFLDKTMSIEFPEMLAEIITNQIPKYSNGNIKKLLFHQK
# UniProt P17302: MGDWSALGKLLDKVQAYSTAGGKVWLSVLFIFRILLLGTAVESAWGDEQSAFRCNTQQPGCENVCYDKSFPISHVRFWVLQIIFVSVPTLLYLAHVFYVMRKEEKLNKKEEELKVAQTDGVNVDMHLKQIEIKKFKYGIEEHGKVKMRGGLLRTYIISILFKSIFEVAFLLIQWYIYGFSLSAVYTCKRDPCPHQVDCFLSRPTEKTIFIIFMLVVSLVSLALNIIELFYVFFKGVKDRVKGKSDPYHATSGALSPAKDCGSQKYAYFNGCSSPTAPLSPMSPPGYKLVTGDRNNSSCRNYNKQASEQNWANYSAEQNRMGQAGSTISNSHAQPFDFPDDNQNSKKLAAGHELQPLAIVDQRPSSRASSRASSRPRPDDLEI
# These are yes or no findings as the source states them, for the method shown. Binding seen in cells or lysates may run through a third protein. Some entries that bind do so weakly or less than the wild type.
# Key:
# [1] = target: GFP tagged glucocorticoid receptor (GFP-GR) (UniProt P04150); assay: co-IP; HEK293T cells (5 x 10^6) co-transfected (5 ug each plasmid, 48 h), lysed in RIPA buffer, precleared with Protein G Plus agarose; anti-GR or anti-CX43 (1:200) at 4 C overnight, Protein G agarose, washed with PBS; western blot
# [2] = target: FLAG tagged glucocorticoid receptor (GR) (UniProt P04150); assay: as above
Substance,binding [1],binding [2]
FLAG tagged connexin 43 (FLAG-CX43) (from UniProt P17302 1-382),binds,–
"connexin 43 (CX43), untagged, overexpressed (from UniProt P17302 1-382)",–,binds
